Reference: PubChem BioAssay AID652272 (Drosophila RNAi Screening Center, 2013)
The screen tested about 21,000 reagents; shown is an unselected part of those with a known target gene and a result. Over the whole deposit, 503 (2.4%) got an active call. 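Raw plate light values, not normalised; calls rest on replicate z-scores that were not deposited; hits include reporter decreases as well as increases.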 The numbers tell different reagents against one gene apart. A plus sign joins genes that one reagent is predicted to hit. Not given: the amount of reagent, the time to read-out.

- Screen: 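Finding fly genes that regulate Hedgehog signal transduction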 (primary screen)
- Cells: Drosophila clone 8 (Cl8) cells
- Reagent: long dsRNA against Drosophila genes
- Detection: 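Firefly light from a Hedgehog-responsive ptc promoter reporter and Renilla reference light, both read on a plate reader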
- Direction: firefly Hh reporter signal: higher = more ptc reporter light; Renilla reference signal: higher = more Renilla control light
- Rule for the call: 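Called a hit if the two-replicate mean z-score lies below -2 or above +3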
- Meaning of the calls: active = hit: reporter lowered or raised; inactive = not a hit

gene | reagent | firefly Hh reporter signal, replicate 1 | firefly Hh reporter signal, replicate 2 | firefly Hh reporter signal, replicate 3 | Renilla reference signal, replicate 1 | Renilla reference signal, replicate 2 | outcome
Atat (alpha-tubulin acetylase) | 1 | 69808 | 34912 | – | 3607 | 1466 | inactive
CG6462 | 1 | 53867 | 46336 | – | 5109 | 3698 | inactive
Mtr3 | 1 | 79704 | 80106 | – | 3025 | 2587 | inactive
CG30403 | 1 | 5.88e5 | 5.00e5 | 58439 | 2275 | 3275 | inactive
beta4GalT7 (beta-4-galactosyltransferase 7) | 1 | 4.81e5 | 82051 | – | 21963 | 2528 | inactive
Mcm3 (Minichromosome maintenance 3) | 1 | 92512 | 59463 | – | 2016 | 1361 | inactive
Taf7 (TBP-associated factor 7) | 1 | 68669 | 73965 | – | 2613 | 8096 | inactive
SdhB (Succinate dehydrogenase, subunit B (iron-sulfur)) | 1 | 1.33e5 | 1.30e5 | – | 5431 | 5020 | inactive
Nnp-1 | 1 | 1.01e5 | 52805 | – | 2450 | 5059 | inactive
Pgant1 (Polypeptide N-Acetylgalactosaminyltransferase 1) | 1 | 1.01e5 | 37205 | – | 2745 | 2044 | inactive
Ir92a (Ionotropic receptor 92a) | 1 | 5.35e5 | 87515 | – | 27296 | 2273 | inactive
CG15283 | 1 | 1.74e5 | 56586 | – | 4136 | 5036 | inactive
CG8001 | 1 | 1.17e5 | 96555 | – | 5962 | 4434 | inactive
Cht10 (Chitinase 10) | 1 | 91730 | 41364 | – | 2480 | 3789 | inactive
Cht10 (Chitinase 10) | 2 | 64474 | 62870 | – | 2833 | 2301 | inactive
Cht10 (Chitinase 10) | 3 | 83012 | 46018 | – | 2299 | 4392 | inactive
CR41501 (pseudo) | 1 | 1.09e5 | 3.01e5 | – | 3029 | 10881 | inactive
CG32452 | 1 | 4.17e5 | – | – | 9517 | – | inactive
Rab9Db + Rab9D + Rab9Fa + 1 more | 1 | 4.89e5 | 1.92e5 | – | 29257 | 4274 | inactive
CG15464 (retired record) | 1 | 1.09e5 | 5.59e5 | 3.08e5 | 3853 | 3821 | inactive
Lamtor3 (Late endosomal/lysosomal adaptor, MAPK and MTOR activator 3) | 1 | 1.40e5 | 67392 | – | 3904 | 5732 | inactive
Osi16 (Osiris 16) | 1 | 68275 | 1.06e5 | – | 2832 | 3221 | inactive
Ugt301D1 (UDP-glycosyltransferase family 301 member D1) | 1 | 1.43e5 | 56518 | – | 3520 | 4673 | inactive
Spn75F (Serpin 75F) | 1 | 2.20e5 | – | – | 4501 | – | inactive
Dgp-1 | 1 | 79305 | 62262 | – | 2232 | 4352 | inactive
mud (mushroom body defect) | 1 | 7.87e5 | 6.25e5 | 3.14e5 | 46002 | 5397 | inactive
ham (hamlet) | 1 | 1.47e5 | 3.39e5 | – | 3716 | 14762 | inactive
ham (hamlet) | 2 | 74449 | 60288 | – | 1736 | 5453 | inactive
ham (hamlet) | 3 | 1.51e5 | 93041 | – | 4320 | 8477 | inactive
ham (hamlet) | 4 | 1.16e5 | 76899 | – | 2339 | 7061 | inactive
Spec2 (retired record) | 1 | 61911 | 1.13e5 | – | 2448 | 3091 | inactive

6 neighbouring reagents already listed, for reference:
gene | reagent | firefly Hh reporter signal, replicate 1 | firefly Hh reporter signal, replicate 2 | firefly Hh reporter signal, replicate 3 | Renilla reference signal, replicate 1 | Renilla reference signal, replicate 2 | outcome
CG32452 | 1 | 4.17e5 | – | – | 9517 | – | inactive
Rab9Db + Rab9D + Rab9Fa + 1 more | 1 | 4.89e5 | 1.92e5 | – | 29257 | 4274 | inactive
CG15464 (retired record) | 1 | 1.09e5 | 5.59e5 | 3.08e5 | 3853 | 3821 | inactive
Lamtor3 (Late endosomal/lysosomal adaptor, MAPK and MTOR activator 3) | 1 | 1.40e5 | 67392 | – | 3904 | 5732 | inactive
Osi16 (Osiris 16) | 1 | 68275 | 1.06e5 | – | 2832 | 3221 | inactive
Ugt301D1 (UDP-glycosyltransferase family 301 member D1) | 1 | 1.43e5 | 56518 | – | 3520 | 4673 | inactive

More entries follow.
gene | reagent | firefly Hh reporter signal, replicate 1 | firefly Hh reporter signal, replicate 2 | firefly Hh reporter signal, replicate 3 | Renilla reference signal, replicate 1 | Renilla reference signal, replicate 2 | outcome
baf (barrier to autointegration factor) | 1 | 1.16e5 | 59568 | – | 3088 | 5842 | inactive
pygo (pygopus) | 1 | 1.40e5 | 86611 | – | 2906 | 3015 | inactive
Nipped-A | 1 | 85576 | 6.07e5 | 1.03e5 | 4944 | 41629 | inactive
Nipped-A | 2 | 80684 | 43837 | – | 2393 | 4395 | inactive
Nipped-A | 3 | 70811 | 43684 | – | 2434 | 4742 | inactive
Nipped-A | 4 | 52115 | 34113 | – | 2360 | 3339 | inactive
CG5897 | 1 | 40412 | 45845 | 38609 | 5506 | 3184 | inactive
CG6083 | 1 | 39396 | 39636 | 75627 | 4509 | 5660 | inactive
ova (ovaries absent) | 1 | 82432 | 57229 | – | 3692 | 2561 | inactive
CG3436 | 1 | 49223 | 38438 | – | 3072 | 2860 | active
CG10853 | 1 | 1.18e5 | 67650 | – | 2886 | 4501 | inactive
Pi3K68D (Phosphatidylinositol 3-kinase 68D) | 1 | 85168 | 65987 | – | 3610 | 2917 | inactive
ND-B14 (NADH dehydrogenase (ubiquinone) B14 subunit) | 1 | 90396 | 35401 | – | 1558 | 1706 | inactive
CG5098 | 1 | 2.04e5 | 1.20e5 | – | 8805 | 5946 | inactive
CG34447 | 1 | 99912 | 90624 | – | 2860 | 2450 | inactive
WDR79 (WD repeat domain 79) | 1 | 73936 | 80080 | – | 2912 | 2964 | inactive
pncr004:X (retired record) | 1 | 5.35e5 | 3.32e5 | – | 33259 | 7964 | inactive
Cp36 (Chorion protein 36) | 1 | 88144 | 2.01e5 | – | 3053 | 8698 | inactive
CG8046 | 1 | 89141 | 1.04e5 | – | 3605 | 3353 | inactive
CG4896 | 1 | 68144 | 37193 | – | 2713 | 1616 | inactive
CG17819 | 1 | 5.88e5 | 1.74e5 | – | 28305 | 12077 | inactive
fmt (fiery mountain) | 1 | 1.14e5 | 1.18e5 | – | 4040 | 3248 | inactive
CG3517 | 1 | 5.54e5 | 86074 | – | 32084 | 2290 | inactive
CG10347 | 1 | 69651 | 2.06e5 | – | 2124 | 7400 | inactive
CG32425 | 1 | 1.14e5 | 68615 | – | 3596 | 1840 | inactive
CG32425 | 2 | 79073 | 61592 | – | 3181 | 2672 | inactive
CG3652 | 1 | 1.69e5 | 71056 | – | 4225 | 7673 | inactive
CSN6 (COP9 signalosome subunit 6) | 1 | 5.98e5 | 1.36e5 | – | 27574 | 3371 | inactive
Saf6 (SAGA factor-like TAF6) | 1 | 79010 | 74603 | – | 3722 | 3365 | inactive
snoRNA:Me28S-C3420b + RpS11 | 1 | 1.08e5 | 52042 | – | 2962 | 4843 | inactive
Mlp60A (Muscle LIM protein at 60A) | 1 | 54925 | 49536 | – | 1077 | 4538 | inactive
Cftr (CF transmembrane conductance regulator) | 1 | 1.15e5 | 94944 | – | 5576 | 4073 | inactive
CG11630 | 1 | 83257 | 61692 | – | 2224 | 6166 | inactive
spd-2 (spindle defective 2) | 1 | 69867 | 44098 | – | 2728 | 1728 | inactive
CG13220 | 1 | 84198 | 44240 | – | 2043 | 3626 | inactive
CG6550 | 1 | 1.20e5 | 78389 | – | 4852 | 2499 | inactive
Gr57a (Gustatory receptor 57a) | 1 | 90873 | 62048 | – | 2997 | 4227 | inactive
CG17778 | 1 | 90148 | 2.23e5 | – | 3328 | 10016 | inactive
jvl (javelin-like) | 1 | 55761 | 1.17e5 | – | 10621 | 2272 | inactive
jvl (javelin-like) | 2 | 1.33e5 | 1.28e5 | – | 5536 | 4723 | inactive
CG3184 | 1 | 88192 | 56806 | – | 2386 | 1355 | inactive
frm (farmer) | 1 | 2.11e5 | 1.33e5 | – | 7898 | 4576 | inactive
